For 2 molecules, binding results are on record in article PMC6318265, “Structure of BAI1/ELMO2 complex reveals an action mechanism of adhesion GPCRs via ELMO family scaffolds” (Nature Communications, 2019).

Amino acid sequences for entries named in this document (tags omitted). A change or cut given only in a name is not applied to a line headed by its entry.
UniProt O60242: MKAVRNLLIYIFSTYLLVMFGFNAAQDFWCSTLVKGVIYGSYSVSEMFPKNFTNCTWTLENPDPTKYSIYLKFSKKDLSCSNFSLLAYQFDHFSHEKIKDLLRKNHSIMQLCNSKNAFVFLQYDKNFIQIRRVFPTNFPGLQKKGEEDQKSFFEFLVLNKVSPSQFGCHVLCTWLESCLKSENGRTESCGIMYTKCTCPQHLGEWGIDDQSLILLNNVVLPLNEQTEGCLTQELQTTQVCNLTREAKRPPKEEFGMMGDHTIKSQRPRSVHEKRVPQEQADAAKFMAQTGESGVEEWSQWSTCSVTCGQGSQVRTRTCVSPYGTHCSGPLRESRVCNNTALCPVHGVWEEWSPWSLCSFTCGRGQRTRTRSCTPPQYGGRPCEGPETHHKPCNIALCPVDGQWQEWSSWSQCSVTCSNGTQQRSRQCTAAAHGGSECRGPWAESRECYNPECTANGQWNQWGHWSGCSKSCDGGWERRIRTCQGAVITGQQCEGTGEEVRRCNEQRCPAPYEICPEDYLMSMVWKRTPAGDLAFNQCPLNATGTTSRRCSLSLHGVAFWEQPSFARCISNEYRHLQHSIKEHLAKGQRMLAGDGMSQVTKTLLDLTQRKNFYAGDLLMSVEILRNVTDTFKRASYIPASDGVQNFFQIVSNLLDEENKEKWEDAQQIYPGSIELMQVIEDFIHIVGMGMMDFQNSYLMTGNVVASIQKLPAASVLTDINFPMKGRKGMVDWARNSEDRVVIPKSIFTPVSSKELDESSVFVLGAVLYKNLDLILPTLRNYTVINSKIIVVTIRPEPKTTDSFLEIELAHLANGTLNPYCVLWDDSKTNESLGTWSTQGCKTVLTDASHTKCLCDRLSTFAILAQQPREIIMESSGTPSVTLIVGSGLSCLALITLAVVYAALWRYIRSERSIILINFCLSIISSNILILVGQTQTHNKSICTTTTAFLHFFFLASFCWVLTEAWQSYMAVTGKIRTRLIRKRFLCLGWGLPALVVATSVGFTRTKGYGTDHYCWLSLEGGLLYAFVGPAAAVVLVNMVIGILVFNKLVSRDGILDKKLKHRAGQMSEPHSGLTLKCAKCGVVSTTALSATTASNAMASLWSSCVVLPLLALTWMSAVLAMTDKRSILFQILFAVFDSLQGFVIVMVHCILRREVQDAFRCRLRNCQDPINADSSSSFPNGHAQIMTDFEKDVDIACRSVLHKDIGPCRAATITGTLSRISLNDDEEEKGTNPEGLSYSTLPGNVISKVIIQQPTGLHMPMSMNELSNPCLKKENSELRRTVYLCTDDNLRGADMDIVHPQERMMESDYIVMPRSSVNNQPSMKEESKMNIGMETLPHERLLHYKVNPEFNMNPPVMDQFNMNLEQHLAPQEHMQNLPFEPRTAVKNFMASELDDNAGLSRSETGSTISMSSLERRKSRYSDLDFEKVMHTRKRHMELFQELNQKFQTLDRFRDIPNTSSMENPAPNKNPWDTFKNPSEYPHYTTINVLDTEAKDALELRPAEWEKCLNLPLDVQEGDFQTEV

These are yes or no findings as the source states them, for the method shown. Binding seen in cells or lysates may run through a third protein. A result given as binding can be weak or reduced; the word gives no strength. Sequences can lack the tags named with a protein.

Test [1] addresses T1, GST-tagged ELMO2-RAE (human) (UniProt Q96JJ3).
T1 sequence: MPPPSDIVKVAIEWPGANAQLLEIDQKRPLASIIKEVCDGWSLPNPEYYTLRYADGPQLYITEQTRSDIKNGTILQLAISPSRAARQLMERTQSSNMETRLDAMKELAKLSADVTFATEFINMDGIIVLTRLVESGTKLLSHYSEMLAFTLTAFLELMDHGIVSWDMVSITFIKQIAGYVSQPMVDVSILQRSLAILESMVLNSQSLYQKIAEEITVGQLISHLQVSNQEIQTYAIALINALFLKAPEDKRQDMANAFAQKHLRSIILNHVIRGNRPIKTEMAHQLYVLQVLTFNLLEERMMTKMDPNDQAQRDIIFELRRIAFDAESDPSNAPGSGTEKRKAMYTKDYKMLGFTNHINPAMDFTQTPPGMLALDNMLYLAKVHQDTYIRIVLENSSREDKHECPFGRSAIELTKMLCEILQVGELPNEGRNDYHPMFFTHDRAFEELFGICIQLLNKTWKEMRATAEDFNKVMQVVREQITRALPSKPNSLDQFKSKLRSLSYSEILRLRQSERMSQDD
In words: pull-down; GST-tagged ELMO2 proteins on GSH-sepharose beads, lysates of HEK293T cells overexpressing GFP-tagged GPR128-CT; anti-GFP western blot; only the target purified.

A further test has as its target BAI3 ELMO-binding domain (UniProt O60242). In words: pull-down; GST-tagged BAI proteins pre-loaded on GSH-sepharose 4B beads, incubated with lysates of HEK293T cells overexpressing Flag-tagged ELMO2 proteins; lysis buffer 50 mM HEPES pH 7.4, 150 mM NaCl, 1 mM EGTA, 10% glycerol, 1% Triton; 4 °C, 1 h; anti-Flag western blot; only the target purified.

For “GFP-tagged GPR128 cytosolic tail (aa 717-785) (domain or fragment)”, the binding entry in test [1] is “binds”.

B1: Flag-tagged RBD-ARR-ELMO tandem of ELMO2 (aa 1-520) (domain or fragment, UniProt Q96JJ3 1-520)
chain: MPPPSDIVKVAIEWPGANAQLLEIDQKRPLASIIKEVCDGWSLPNPEYYTLRYADGPQLYITEQTRSDIKNGTILQLAISPSRAARQLMERTQSSNMETRLDAMKELAKLSADVTFATEFINMDGIIVLTRLVESGTKLLSHYSEMLAFTLTAFLELMDHGIVSWDMVSITFIKQIAGYVSQPMVDVSILQRSLAILESMVLNSQSLYQKIAEEITVGQLISHLQVSNQEIQTYAIALINALFLKAPEDKRQDMANAFAQKHLRSIILNHVIRGNRPIKTEMAHQLYVLQVLTFNLLEERMMTKMDPNDQAQRDIIFELRRIAFDAESDPSNAPGSGTEKRKAMYTKDYKMLGFTNHINPAMDFTQTPPGMLALDNMLYLAKVHQDTYIRIVLENSSREDKHECPFGRSAIELTKMLCEILQVGELPNEGRNDYHPMFFTHDRAFEELFGICIQLLNKTWKEMRATAEDFNKVMQVVREQITRALPSKPNSLDQFKSKLRSLSYSEILRLRQSERMSQDD
For the molecule B1, the binding result in the test with BAI3 ELMO-binding domain was “binds”.
